Source: the supplement of paper PMC6411743
± gives the standard deviation of the averaged measurements. This is a selection; strong and weak results do not stand in their true shares. Most values lie at the level of the controls, where differences are scatter.

The chains behind the UniProt entries cited, without tags or fusion partners. Where a name states a change or a piece, a line headed by the entry shows the natural chain unless it says otherwise.
UniProt Q9NPA0: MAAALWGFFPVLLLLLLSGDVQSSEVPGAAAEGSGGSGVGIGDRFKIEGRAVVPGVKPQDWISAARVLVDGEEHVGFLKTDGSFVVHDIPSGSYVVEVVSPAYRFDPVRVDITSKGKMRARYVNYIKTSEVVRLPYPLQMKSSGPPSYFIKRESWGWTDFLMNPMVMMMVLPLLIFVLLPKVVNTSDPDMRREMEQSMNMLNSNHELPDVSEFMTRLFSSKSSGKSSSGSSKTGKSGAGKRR
UniProt Q9H5Q4: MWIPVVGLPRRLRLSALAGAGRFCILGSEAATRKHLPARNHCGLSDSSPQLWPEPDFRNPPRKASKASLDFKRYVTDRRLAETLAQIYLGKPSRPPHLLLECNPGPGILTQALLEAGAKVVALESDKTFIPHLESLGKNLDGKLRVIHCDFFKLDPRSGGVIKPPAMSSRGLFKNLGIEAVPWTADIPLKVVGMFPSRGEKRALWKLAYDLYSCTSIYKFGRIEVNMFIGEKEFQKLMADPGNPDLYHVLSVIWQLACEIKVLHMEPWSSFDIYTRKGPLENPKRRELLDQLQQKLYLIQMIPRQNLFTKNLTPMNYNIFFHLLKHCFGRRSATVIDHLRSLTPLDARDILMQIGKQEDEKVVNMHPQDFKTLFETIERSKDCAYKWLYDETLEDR
UniProt Q9HB71, whole entry: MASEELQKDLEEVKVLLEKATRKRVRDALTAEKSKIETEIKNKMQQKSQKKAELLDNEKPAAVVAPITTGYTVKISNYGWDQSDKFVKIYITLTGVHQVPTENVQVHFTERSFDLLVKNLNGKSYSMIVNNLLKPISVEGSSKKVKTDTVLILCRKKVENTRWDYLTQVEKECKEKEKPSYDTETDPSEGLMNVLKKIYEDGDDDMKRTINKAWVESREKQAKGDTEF
UniProt Q9H668: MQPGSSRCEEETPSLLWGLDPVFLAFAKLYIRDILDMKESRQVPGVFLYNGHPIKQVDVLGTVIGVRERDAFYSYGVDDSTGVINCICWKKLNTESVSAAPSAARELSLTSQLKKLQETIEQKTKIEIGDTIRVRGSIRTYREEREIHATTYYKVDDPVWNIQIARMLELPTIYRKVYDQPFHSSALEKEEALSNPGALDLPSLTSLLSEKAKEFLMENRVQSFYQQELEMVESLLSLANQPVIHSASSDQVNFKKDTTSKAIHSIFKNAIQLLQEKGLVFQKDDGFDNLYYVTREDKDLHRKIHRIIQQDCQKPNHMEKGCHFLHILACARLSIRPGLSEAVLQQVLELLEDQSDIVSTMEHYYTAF
UniProt Q9H307: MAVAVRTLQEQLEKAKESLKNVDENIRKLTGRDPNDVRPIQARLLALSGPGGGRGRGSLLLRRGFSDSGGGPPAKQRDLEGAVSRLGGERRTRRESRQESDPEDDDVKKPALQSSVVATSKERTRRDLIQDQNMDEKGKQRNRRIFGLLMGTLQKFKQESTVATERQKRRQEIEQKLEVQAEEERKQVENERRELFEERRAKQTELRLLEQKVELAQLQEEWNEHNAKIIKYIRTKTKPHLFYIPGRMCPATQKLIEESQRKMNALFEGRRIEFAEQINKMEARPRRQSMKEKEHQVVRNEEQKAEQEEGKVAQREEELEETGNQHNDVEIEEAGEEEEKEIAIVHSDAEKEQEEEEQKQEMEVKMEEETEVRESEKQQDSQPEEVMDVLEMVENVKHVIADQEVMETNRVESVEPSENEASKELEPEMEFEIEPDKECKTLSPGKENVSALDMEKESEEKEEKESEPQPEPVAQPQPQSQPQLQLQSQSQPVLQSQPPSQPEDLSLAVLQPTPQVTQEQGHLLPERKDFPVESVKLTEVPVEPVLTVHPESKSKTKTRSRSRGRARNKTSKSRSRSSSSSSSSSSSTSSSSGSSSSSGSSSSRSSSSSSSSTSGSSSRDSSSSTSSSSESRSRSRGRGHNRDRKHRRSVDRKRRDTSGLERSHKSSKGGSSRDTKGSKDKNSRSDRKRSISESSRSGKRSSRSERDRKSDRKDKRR
UniProt Q9H0U9: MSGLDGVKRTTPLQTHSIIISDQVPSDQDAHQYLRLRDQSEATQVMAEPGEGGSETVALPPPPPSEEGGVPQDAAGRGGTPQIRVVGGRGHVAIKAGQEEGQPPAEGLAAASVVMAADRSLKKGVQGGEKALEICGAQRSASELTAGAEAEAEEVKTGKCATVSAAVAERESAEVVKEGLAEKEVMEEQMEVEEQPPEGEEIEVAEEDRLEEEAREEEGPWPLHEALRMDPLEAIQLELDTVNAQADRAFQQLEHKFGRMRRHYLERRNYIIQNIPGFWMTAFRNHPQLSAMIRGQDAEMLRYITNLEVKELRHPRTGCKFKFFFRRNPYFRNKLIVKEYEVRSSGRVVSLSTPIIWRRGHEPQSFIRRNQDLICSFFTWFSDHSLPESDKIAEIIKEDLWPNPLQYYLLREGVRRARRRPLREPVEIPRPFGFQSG
UniProt Q9C0I1: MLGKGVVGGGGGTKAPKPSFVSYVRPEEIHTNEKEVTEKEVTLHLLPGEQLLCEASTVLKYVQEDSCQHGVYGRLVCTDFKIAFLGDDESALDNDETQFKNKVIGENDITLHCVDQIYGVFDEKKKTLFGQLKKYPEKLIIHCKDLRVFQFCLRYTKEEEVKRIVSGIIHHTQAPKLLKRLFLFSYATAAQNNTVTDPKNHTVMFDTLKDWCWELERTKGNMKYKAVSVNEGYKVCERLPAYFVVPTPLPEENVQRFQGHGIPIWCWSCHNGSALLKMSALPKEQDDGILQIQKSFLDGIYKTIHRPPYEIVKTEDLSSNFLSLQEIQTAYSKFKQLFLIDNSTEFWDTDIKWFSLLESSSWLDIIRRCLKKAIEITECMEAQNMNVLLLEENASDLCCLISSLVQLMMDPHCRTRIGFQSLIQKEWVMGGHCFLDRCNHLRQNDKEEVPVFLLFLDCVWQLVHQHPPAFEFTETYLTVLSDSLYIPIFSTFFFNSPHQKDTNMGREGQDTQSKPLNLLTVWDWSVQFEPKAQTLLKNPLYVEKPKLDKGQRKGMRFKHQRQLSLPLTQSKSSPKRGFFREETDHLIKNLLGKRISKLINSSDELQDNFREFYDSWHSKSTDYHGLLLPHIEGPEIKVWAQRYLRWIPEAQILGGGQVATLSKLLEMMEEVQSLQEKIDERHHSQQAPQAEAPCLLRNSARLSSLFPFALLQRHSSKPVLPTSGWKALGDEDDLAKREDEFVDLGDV
UniProt Q9H1P3, whole entry: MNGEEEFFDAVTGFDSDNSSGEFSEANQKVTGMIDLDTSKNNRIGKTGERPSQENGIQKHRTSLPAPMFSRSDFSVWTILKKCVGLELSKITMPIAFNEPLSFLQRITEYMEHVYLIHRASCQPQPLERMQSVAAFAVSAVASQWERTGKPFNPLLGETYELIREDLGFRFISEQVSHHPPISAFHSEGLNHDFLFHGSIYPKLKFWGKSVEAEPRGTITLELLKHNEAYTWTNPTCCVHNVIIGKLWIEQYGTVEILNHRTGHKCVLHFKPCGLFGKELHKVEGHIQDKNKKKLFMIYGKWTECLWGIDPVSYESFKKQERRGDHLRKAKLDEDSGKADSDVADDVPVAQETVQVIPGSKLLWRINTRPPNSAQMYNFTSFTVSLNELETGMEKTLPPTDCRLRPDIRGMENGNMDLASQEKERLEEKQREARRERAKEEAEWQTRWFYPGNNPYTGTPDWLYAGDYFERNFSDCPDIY
UniProt Q9HCM1: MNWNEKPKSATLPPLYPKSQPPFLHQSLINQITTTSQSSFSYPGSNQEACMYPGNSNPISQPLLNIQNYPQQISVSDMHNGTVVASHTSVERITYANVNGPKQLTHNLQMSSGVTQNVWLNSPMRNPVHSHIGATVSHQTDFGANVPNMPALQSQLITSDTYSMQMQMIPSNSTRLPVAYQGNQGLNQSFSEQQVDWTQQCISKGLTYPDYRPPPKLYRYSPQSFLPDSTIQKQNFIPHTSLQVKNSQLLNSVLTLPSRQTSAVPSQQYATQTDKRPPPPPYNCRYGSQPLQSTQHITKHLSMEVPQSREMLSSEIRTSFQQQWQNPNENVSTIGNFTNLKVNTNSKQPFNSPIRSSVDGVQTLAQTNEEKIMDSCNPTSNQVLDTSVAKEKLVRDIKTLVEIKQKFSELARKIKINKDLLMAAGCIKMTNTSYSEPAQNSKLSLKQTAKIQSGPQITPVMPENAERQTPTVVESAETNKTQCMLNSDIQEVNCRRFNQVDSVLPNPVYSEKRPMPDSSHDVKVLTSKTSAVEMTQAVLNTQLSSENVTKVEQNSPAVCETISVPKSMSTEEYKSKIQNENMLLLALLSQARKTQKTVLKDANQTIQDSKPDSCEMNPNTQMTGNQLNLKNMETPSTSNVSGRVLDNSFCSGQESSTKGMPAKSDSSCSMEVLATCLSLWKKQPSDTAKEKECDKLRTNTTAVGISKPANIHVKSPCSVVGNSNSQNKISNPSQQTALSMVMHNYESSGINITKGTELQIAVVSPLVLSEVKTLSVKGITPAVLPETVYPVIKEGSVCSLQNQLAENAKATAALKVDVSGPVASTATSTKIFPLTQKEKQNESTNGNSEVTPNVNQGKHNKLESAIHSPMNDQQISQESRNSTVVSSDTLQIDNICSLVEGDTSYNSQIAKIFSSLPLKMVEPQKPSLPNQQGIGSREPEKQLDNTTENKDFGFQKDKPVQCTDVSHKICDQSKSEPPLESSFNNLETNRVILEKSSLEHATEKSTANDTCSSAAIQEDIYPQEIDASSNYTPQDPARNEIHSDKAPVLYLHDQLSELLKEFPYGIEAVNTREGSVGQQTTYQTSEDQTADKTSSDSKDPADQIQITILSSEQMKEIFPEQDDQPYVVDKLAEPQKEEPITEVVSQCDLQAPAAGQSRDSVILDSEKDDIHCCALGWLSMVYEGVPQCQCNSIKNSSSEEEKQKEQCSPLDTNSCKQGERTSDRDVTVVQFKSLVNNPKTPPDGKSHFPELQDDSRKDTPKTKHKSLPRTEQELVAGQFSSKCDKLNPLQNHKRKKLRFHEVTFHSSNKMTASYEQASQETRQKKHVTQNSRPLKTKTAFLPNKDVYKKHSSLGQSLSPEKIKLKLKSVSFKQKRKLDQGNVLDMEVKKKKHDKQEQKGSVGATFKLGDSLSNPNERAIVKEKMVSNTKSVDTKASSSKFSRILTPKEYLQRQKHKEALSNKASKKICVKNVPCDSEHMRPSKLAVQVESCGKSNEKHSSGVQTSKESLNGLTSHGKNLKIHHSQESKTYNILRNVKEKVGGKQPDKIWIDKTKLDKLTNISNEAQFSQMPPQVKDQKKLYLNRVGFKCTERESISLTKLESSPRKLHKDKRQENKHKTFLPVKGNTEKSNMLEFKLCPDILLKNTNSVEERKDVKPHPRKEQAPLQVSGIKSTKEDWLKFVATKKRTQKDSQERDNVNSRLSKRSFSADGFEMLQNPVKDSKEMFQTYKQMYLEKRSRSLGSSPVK
UniProt Q9H270: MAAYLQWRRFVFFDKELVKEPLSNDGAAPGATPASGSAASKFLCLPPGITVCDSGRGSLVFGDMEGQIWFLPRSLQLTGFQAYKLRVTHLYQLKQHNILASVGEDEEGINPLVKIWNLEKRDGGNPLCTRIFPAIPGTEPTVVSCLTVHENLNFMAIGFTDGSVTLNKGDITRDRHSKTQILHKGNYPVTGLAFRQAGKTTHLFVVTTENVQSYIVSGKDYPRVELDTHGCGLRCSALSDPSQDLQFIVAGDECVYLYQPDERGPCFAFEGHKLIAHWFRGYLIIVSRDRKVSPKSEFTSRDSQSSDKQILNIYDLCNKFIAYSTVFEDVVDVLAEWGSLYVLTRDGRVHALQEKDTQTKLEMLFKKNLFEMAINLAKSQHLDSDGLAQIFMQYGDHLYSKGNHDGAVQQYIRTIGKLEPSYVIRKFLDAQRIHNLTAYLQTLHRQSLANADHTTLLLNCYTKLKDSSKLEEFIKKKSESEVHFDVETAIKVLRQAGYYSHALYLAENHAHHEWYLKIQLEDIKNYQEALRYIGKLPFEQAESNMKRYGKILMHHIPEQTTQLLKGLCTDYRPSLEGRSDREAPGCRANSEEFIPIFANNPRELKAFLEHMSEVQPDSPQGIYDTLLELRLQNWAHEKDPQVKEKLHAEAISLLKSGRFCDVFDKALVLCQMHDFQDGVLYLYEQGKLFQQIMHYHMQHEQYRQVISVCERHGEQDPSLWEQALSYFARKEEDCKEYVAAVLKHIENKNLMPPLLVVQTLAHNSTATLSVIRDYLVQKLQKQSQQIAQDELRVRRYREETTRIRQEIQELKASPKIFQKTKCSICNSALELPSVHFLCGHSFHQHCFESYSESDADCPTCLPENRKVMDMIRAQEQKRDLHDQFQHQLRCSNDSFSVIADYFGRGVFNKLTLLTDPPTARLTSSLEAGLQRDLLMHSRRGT
UniProt Q9HCN8: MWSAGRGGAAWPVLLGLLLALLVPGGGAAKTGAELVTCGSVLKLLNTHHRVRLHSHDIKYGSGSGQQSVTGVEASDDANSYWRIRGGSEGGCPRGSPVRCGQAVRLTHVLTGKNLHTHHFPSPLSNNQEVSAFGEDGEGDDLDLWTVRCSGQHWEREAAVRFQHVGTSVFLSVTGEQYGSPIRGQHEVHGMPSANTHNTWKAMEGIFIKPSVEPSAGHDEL

Compound: Nc1ncnc2c1ncn2[C@@H]1O[C@H](COP(=O)(O)OP(=O)(O)NP(=O)(O)O)[C@@H](O)[C@H]1O [adenylyl imidodiphosphate]
Assay: NP40-soluble protein abundance relative to vehicle (solubility fold change) (ratio); higher = more soluble protein in presence of AMP-PNP
In short: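 Eight concentrations, 0.1 to 10 mM, were tested on Jurkat crude lysate for 10 min at room temperature and then 3 min at 37 °C, in three independent experiments. The lysate was solubilised with 0.8% NP40 and benzonase, ultracentrifuged, and the supernatant TMT-labelled for LC-MS/MS. Each value is the fold change against the detergent-processed vehicle in its own replicate, from vsn-normalised intensities.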

Target	NP40-soluble protein abundance (concentration: 0.1mM)	NP40-soluble protein abundance (concentration: 0.5mM)
UniProt Q9H8M2 and related entries	0.99 ± 0.03	0.992 ± 0.047
MIS12 (UniProt Q9H081)	1.01 ± 0.062	1.03 ± 0.063
UniProt Q9H993	1.01 ± 0.037	1.03 ± 0.019
PARVG (UniProt Q9HBI0)	0.9763 ± 0.0097	0.93 ± 0.0096
UCK2 (UniProt Q9BZX2)	1.06 ± 0.056	1.02 ± 0.026
CWC22 (UniProt Q9HCG8)	0.961 ± 0.024	1 ± 0.04
HMG20A (UniProt Q9NP66)	1.01 ± 0.022	1.02 ± 0.047
KDM4C (UniProt Q9H3R0)	1 ± 0.032	1 ± 0.04
UniProt Q9NPA0	1.04 ± 0.045	1.03 ± 0.042
UniProt Q9H8Y8 and related entries	0.966 ± 0.031	1.01 ± 0.047
TFB2M (UniProt Q9H5Q4)	1.01 ± 0.033	0.993 ± 0.036
CACYBP (UniProt Q9HB71)	0.984 ± 0.012	1.04 ± 0.057
UniProt Q9H668	1.01 ± 0.027	0.989 ± 0.015
MRPL46 (UniProt Q9H2W6)	1.01 ± 0.031	1.02 ± 0.025
UniProt Q9H1Z4 and related entries	1 ± 0.017	0.991 ± 0.026
PLEKHF2 (UniProt Q9H8W4)	0.977 ± 0.043	0.996 ± 0.051
UniProt Q9GZN8 and related entries	1 ± 0.038	0.99 ± 0.043
UniProt Q9C0F1	0.993 ± 0.029	1.03 ± 0.046
UniProt Q9H2G9 and related entries	1.01 ± 0.025	0.952 ± 0.015
UniProt Q9H3H1 and related entries	1.04 ± 0.08	1.1 ± 0.11

Part of the list above in another layout:
Target,NP40-soluble protein abundance (concentration: 0.1mM),NP40-soluble protein abundance (concentration: 0.5mM)
MIS12 (UniProt Q9H081),1.01 ± 0.062,1.03 ± 0.063
UniProt Q9H993,1.01 ± 0.037,1.03 ± 0.019
PARVG (UniProt Q9HBI0),0.9763 ± 0.0097,0.93 ± 0.0096
UCK2 (UniProt Q9BZX2),1.06 ± 0.056,1.02 ± 0.026
CWC22 (UniProt Q9HCG8),0.961 ± 0.024,1 ± 0.04
HMG20A (UniProt Q9NP66),1.01 ± 0.022,1.02 ± 0.047
KDM4C (UniProt Q9H3R0),1 ± 0.032,1 ± 0.04
UniProt Q9NPA0,1.04 ± 0.045,1.03 ± 0.042
UniProt Q9H8Y8 and related entries,0.966 ± 0.031,1.01 ± 0.047
TFB2M (UniProt Q9H5Q4),1.01 ± 0.033,0.993 ± 0.036
CACYBP (UniProt Q9HB71),0.984 ± 0.012,1.04 ± 0.057
UniProt Q9H668,1.01 ± 0.027,0.989 ± 0.015
MRPL46 (UniProt Q9H2W6),1.01 ± 0.031,1.02 ± 0.025
UniProt Q9H1Z4 and related entries,1 ± 0.017,0.991 ± 0.026

Following part

Target	NP40-soluble protein abundance (concentration: 0.1mM)	NP40-soluble protein abundance (concentration: 0.5mM)
PHAX (UniProt Q9H814)	0.994 ± 0.034	1.02 ± 0.053
RDH14 (UniProt Q9HBH5)	1.04 ± 0.042	1.01 ± 0.0037
EML4 (UniProt Q9HC35)	0.985 ± 0.025	0.976 ± 0.018
UniProt Q9H4A5-2|Q5T5I6 and related entries	1.02 ± 0.034	1.011 ± 0.006
TMEM165 (UniProt Q9HC07)	1.04 ± 0.03	1.06 ± 0.063
UniProt Q9H2H8 and related entries	1.01 ± 0.049	1 ± 0.044
PPCS (UniProt Q9HAB8)	1.01 ± 0.017	1.02 ± 0.015
PUS7L (UniProt Q9H0K6)	1 ± 0.047	0.987 ± 0.014
WDR61 (UniProt Q9GZS3)	0.979 ± 0.012	0.953 ± 0.043
CPVL (UniProt Q9H3G5)	0.979 ± 0.04	0.973 ± 0.051
CHD8 (UniProt Q9HCK8)	1.006 ± 0.0061	0.989 ± 0.018
CUEDC2 (UniProt Q9H467)	0.977 ± 0.043	1.03 ± 0.075
PNN (UniProt Q9H307)	0.988 ± 0.11	0.984 ± 0.17
TSPYL1 (UniProt Q9H0U9)	0.993 ± 0.016	0.9849 ± 0.0075
UniProt Q9C0I1 and related entries	0.958 ± 0.024	0.989 ± 0.025
UniProt Q9H1P3 and related entries	0.99 ± 0.0097	1.01 ± 0.025
UniProt Q9HCM1	0.981 ± 0.01	0.981 ± 0.027
OSGEP (UniProt Q9NPF4)	0.992 ± 0.016	0.98 ± 0.039
FN3KRP (UniProt Q9HA64)	1.01 ± 0.011	1 ± 0.047
UniProt Q9NPJ3	0.98 ± 0.03	0.978 ± 0.021

Target	NP40-soluble protein abundance (concentration: 0.1mM)	NP40-soluble protein abundance (concentration: 0.5mM)
UniProt Q9H270 and related entries	1.02 ± 0.037	0.998 ± 0.045
UniProt Q9H2U1 and related entries	1.02 ± 0.017	1.05 ± 0.028
NOL11 (UniProt Q9H8H0)	1 ± 0.035	0.9851 ± 0.0043
UCK1 (UniProt Q9HA47)	0.961 ± 0.017	0.997 ± 0.023
POFUT1 (UniProt Q9H488)	0.996 ± 0.054	0.978 ± 0.024
UniProt Q9H477 and related entries	0.991 ± 0.017	0.99 ± 0.039
FTO (UniProt Q9C0B1)	0.99 ± 0.024	0.993 ± 0.056
UniProt Q9GZM8 and related entries	1.01 ± 0.036	1.01 ± 0.03
UniProt Q9H6U6 and related entries	1 ± 0.039	0.983 ± 0.043
UniProt Q9GZT3 and related entries	0.998 ± 0.047	1.03 ± 0.075
UniProt Q9H3Z4 and related entries	1.01 ± 0.045	1.04 ± 0.048
UniProt Q9HAJ7 and related entries	1.06 ± 0.021	0.949 ± 0.016
XAB2 (UniProt Q9HCS7)	1.07 ± 0.057	1 ± 0.044
UniProt Q9GZY4	0.964 ± 0.012	0.986 ± 0.038
UniProt Q9H019 and related entries	1.03 ± 0.05	0.992 ± 0.058
SDF2L1 (UniProt Q9HCN8)	1 ± 0.016	0.988 ± 0.033
UniProt Q9NPG3 and related entries	1.01 ± 0.025	1.01 ± 0.023
CDT1 (UniProt Q9H211)	1.04 ± 0.035	1.03 ± 0.068
ULBP2 (UniProt Q9BZM5)	1.03 ± 0.063	0.9974 ± 0.0075
UniProt Q9BZE9 and related entries	0.986 ± 0.034	0.999 ± 0.077
